Experimental data reported in publication PMC5010535 (Cancer research, 2016).

Columns and labels:
Assay type in all cases: cell-based
LNCaP-abl cells = experiment: Cell proliferation assay, LNCaP-abl cells
LNCaP-C4-2 cells = experiment: Cell proliferation assay, LNCaP-C4-2 cells; settings: Homo sapiens, LNCaP C4-2, read-out: IC50, inhibition of proliferation
LNCaP cells = experiment: Cell proliferation assay, LNCaP cells; settings: Homo sapiens, read-out: IC50, inhibition of proliferation
LNCaP-95 cells = experiment: Cell proliferation assay, LNCaP-95 cells

CNC(=O)c1ccc(N2C(=S)N(c3ccc(C#N)c(C(F)(F)F)c3)C(=O)C2(C)C)cc1F [enzalutamide]
IC50, inhibition of proliferation (LNCaP-abl cells): not reached | IC50 (LNCaP-C4-2 cells): 18.5 µM | IC50 (LNCaP cells): 19 µM | IC50, inhibition of proliferation (LNCaP-95 cells): not reached
